Experimental data published in patent US20110135620A1.
Results are given in words; binding and its absence hold for the method and conditions named. Binding seen in cells or lysates may run through a third protein. Some binding calls cover weakened binding; strength is not graded here.

Amino acid sequences for entries named in this document (tags omitted). Residues count along the entry.
UniProt Q09472, residues 323-423: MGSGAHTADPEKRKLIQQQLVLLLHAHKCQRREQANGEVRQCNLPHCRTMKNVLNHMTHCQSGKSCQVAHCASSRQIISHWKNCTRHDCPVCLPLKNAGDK

Columns and labels:
[1] = biological target: GST-HIF-1a (C-TAD domain of HIF-1a fused to the C-terminus of glutathione S-transferase) (Homo sapiens); assay: coexpression in E. coli, glutathione agarose pull-down, SDS-PAGE
[2] = biological target: GST-HIF-1a (C-TAD domain of HIF-1a fused to the C-terminus of glutathione S-transferase) (Homo sapiens); assay: co-expression and co-purification in E. coli
[3] = biological target: GST-HIF-1a (C-TAD domain of HIF-1a fused to the C-terminus of glutathione S-transferase) (Homo sapiens); assay: glutathione column co-purification from E. coli lysates, SDS-PAGE (coomassie)

Measured: binding

CH1 domain of p300 (from UniProt Q09472 323-423)
binds: all assays above
